Source: patent US20150266957A1
These are yes or no findings as the source states them, for the method shown. Some binding calls cover weakened binding; strength is not graded here.

Tests used:
[1] = target: cynomolgus monkey PROKR2 (cynomolgus monkey (Macaca fascicularis)); experiment: flow cytometry, HEK293 cells expressing the target
[2] = target: cynomolgus monkey PROKR2 (cynomolgus monkey (Macaca fascicularis)); experiment: flow cytometry, HEK293 cells expressing the target, 13 nM antibody

B1: H2M6385N (antibody, V domains shown)
VH: EVQVVESGGGLVKPGGSLRLSCAASGFTFSNVWMTWVRQAPGKGLEWVGRIKSKIEGGTTDYAASVKGRFTISRDDSKNTQSLQMNSLKSEDTAVYYCSTGHLAYWGQGTLVIVSS
VL: DIVMTQTPLSSPVSLGQPASISCRSSQSLVHSDGSTYLSWLQQRPGQPPRLLIYKISNRFSGVPDRFSGSGAGTDFTLKISRVEAEDVGIYYCMQATQFPTFGQGTKVEIK
binding [1]: binds | binding [2]: binds
